According to article PMC12670160, “A drug-repurposing screen of FDA- and EMA-approved drugs identifies two NF-κB inhibitors active against eumycetoma” (Journal of Antimicrobial Chemotherapy, 2025):
Counter-ions that a name gives are not always drawn. Like-named read-outs stand apart in the source and are kept apart here. Hit rate of the full screen: of about 5,300 compounds, about 130 (2.5%) showed an effect of 50% or more. The list shows a part of the results.

System: M. mycetomatis strain mm55
Settings: primary screen, metabolic activity vs growth control, 96 h, 2 µM, inhibitor

Row | SMILES | % viability | % viability (Madurella mycetomatis metabolic activity at 2µM (%))
1 | CCN(c1cc(-c2ccc(CN3CCOCC3)cc2)cc(C(=O)NCc2c(C)cc(C)[nH]c2=O)c1C)C1CCOCC1 [ONC0004373, tazemetostat epz6438] | 81.86% | –
2 | NC(N)=O [ONC0003184, urea] | 95.67% | –
3 | Cc1cccc(C)c1NC(=O)CN1CCCCCC1 [ONC0002330, pincainide] | 57.17% | –
4 | Cn1c([N+](=O)[O-])cnc1COC(N)=O [ONC0000624, ronidazole] | 136.6% | –
5 | COc1ccc2c(c1)c(CC(=O)OCC(C(=O)O)c1ccccc1)c(C)n2C(=O)c1ccc(Cl)cc1 (stereo not shown) [ONC0005419, tropesin] | 78% | –
6 | O=C1c2ccccc2S(=O)(=O)N1CCCCN1CCN(c2ncccn2)CC1 [ONC0004443, ipsapirone] | 111.9% | –
7 | CCn1c(O)nnc1-c1ccc(Cl)cc1 [ONC0004218, 54chlorophenyl4ethyl24dihydro3h124triazol3one] | 123.6% | –
8 | O=C(O)CC1CC(c2ccccc2)=NO1 (stereo not shown) [ONC0004704, vgx1027] | 119.9% | –
9 | COc1ccc(C2Oc3c(CC=C(C)C)c(O)cc(O)c3C(=O)C2=O)cc1 (stereo not shown) [ONC0005395, 57dihydroxy24methoxyphenyl83methyl2buten1yl2hchromene34dione] | 83.8% | –
10 | O=C(O)CCc1cc(C(=O)c2ccc(OC3CCCC3)cc2O)ccc1OCc1ccc2c(O)noc2c1 [ONC0002038, t5224] | 91.59% | –
11 | O=C(O)c1cc(O)c2ccc(Cl)cc2n1 [ONC0000108, 7chlorokynurenicacid] | 110.4% | –
12 | CCCCC1OC(=O)c2ccccc21 (stereo not shown) [ONC0002284, butylphthalide] | 103.4% | –
13 | O=C(O)CC(O)(CC(=O)O)C(=O)O.[Li].[Li].[Li] [ONC0004255, lithium citrate hydrate] | 60.67% | –
14 | OC[C@H]1O[C@@H](O[C@@H]2[C@@H](CO)OC(O)(CO)[C@H]2O)[C@H](O)[C@@H](O)[C@H]1O (mixture of isomers) [ONC0000410, lactulose] | 70.45% | –
15 | CCCN1CCO[C@@H]2c3cc(O)ccc3OC[C@H]21 [ONC0000309, pd128907] | 42.57% | –
16 | FC(F)(F)Oc1ccc2[nH]c(-c3ccc(OCCOCCOc4ccc(-c5nc6cc(OC(F)(F)F)ccc6[nH]5)nc4)cn3)nc2c1 [ONC0000980, ai1049] | 83.7% | –
17 | CC(=O)OCC(=O)[C@@]12OC(C)(C)O[C@@H]1CC1C3C[C@H](F)C4=CC(=O)C=C[C@]4(C)[C@@]3(F)[C@@H](O)C[C@@]12C (stereo partly shown) [ONC0000518, fluocinonide] | 69.32% | –
18 | COc1ccc(-c2cc(C(F)F)nn2-c2ccc(S(N)(=O)=O)cc2)cc1F [ONC0003972, deracoxib] | 81.02% | –
19 | N[C@@H](C(=O)N[C@@H]1C(=O)N2C(C(=O)O)=C(Cl)CS[C@H]12)c1ccccc1 [ONC0003819, cefaclor] | 72.17% | –
20 | CCCCCCCCCCCCCCCC[n+]1ccccc1 [ONC0000741, cetylpyridinium chloride] | 69.27% | –
21 | CN1CCN(c2cccc3[nH]c(=O)oc23)CC1 [ONC0001222, pardoprunox hydrochloride] | 113% | –

Row | SMILES | % viability | % viability (Madurella mycetomatis metabolic activity at 2µM (%))
22 | CCCCCCCCN=c1ccn(CCCCCCCCCCn2ccc(=NCCCCCCCC)cc2)cc1 [ONC0002745, octenidine dihydrochloride] | 205.7% | –
23 | COc1ccc(C(=O)NCc2ccc(OCCN(C)C)cc2)cc1OC [ONC0004008, itopride hydrochloride] | 60.78% | –
24 | CC(C)CN(C[C@@H](OP(=O)(O)O)[C@H](Cc1ccccc1)NC(=O)O[C@H]1CCOC1)S(=O)(=O)c1ccc(N)cc1 [ONC0001934, fosamprenavir] | 68.14% | –
25 | CC[C@@H](Nc1c(Nc2cccc(C(=O)N(C)C)c2O)c(=O)c1=O)c1ccc(C)o1 [ONC0000897, navarixin] | 86.41% | –
26 | COc1cc(N2CCN(C(C)=O)CC2)ccc1Nc1ncc(Cl)c(Nc2ccc(N3CCN(C(C)=O)CC3)cc2OC)n1 [ONC0003574, krca0008] | 122% | –
27 | CN(C)Cc1cccc(N/C(=C2\C(=O)Nc3cc(C(N)=O)ccc32)c2ccccc2)c1 [ONC0004857, bix 02188] | 98.87% | –
28 | Cc1cnc(CNC(=O)c2c(=O)c3ccc(N4CCCN(C)CC4)nc3n3c2sc2ccccc23)cn1 [ONC0002208, cx5461] | 69.16% | –
29 | O=C(Nc1ccccc1C(=O)Nc1ccc(CCO)cc1)c1ccc([N+](=O)[O-])cc1 [ONC0001772, ks176] | 95.92% | –
30 | Nc1ncnc2c1c(-c1ccc(Cl)cc1)nn2-c1cccc(-c2cnnn2Cc2cccc(-c3ccccc3)c2)c1 [ONC0004379, kbsrc4] | 160.9% | –
31 | O=C(c1cc(O)c(O)c(O)c1)c1ccc(O)c(O)c1O [ONC0005442, exifone] | 114.2% | –
32 | C=C1C(=O)O[C@@H]2C[C@@]3(C)CCC[C@H](C)C3=C[C@H]12 [ONC0000067, alantolactone] | 159.8% | –
33 | Cc1c(C(=O)NN2CCOCC2)nn(-c2ccc(Cl)cc2Cl)c1-c1ccc(I)cc1 [ONC0000357, am281] | 71.97% | –
34 | COc1ccc2nc(NC(=O)Nc3ccccc3)sc2c1 [ONC0001834, frentizole] | 101.5% | –
35 | N#Cc1c(-c2ccccc2)cc(-c2cc(Br)ccc2O)[nH]c1=O [ONC0000184, tcspim11] | 67.05% | –
36 | CC(C)Oc1ccc2c(=O)c3cc(C(=O)O)ccc3oc2c1 [ONC0003031, ah6809] | 81.53% | –
37 | Nc1ncnc2c1ncn2[C@@H]1O[C@H](COP(=O)(O)OP(=O)(O)OP(=O)(O)O)[C@@H](O)[C@H]1O [ONC0003884, adenosine triphosphate disodium] | 91.31% | –
38 | CCC(=O)O[C@]1(C(=O)CCl)[C@@H](C)C[C@H]2[C@@H]3C[C@H](F)C4=CC(=O)C=C[C@]4(C)[C@@]3(F)[C@@H](O)C[C@@]21C [ONC0005192, halobetasol propionate] | 116.1% | –
39 | O=C1OC2(c3cc(I)c(O)c(I)c3Oc3c2cc(I)c(O)c3I)c2c(Cl)c(Cl)c(Cl)c(Cl)c21 [ONC0002983, rosebengallactone] | – | 60.55%
40 | O=C(C[C@H]1NCCC[C@@H]1O)Cn1cnc2cc(Br)c(Cl)cc2c1=O (racemic) [ONC0004939, halofuginone] | 90.07% | –
41 | C[C@@H](CN1CC(=O)NC(=O)C1)N1CC(=O)NC(=O)C1 [ONC0001431, dexrazoxane] | 71.57% | –
42 | CC(=O)Nc1ccc(CC(=O)O)cc1 [ONC0000495, actarit] | 68.16% | –

Row | SMILES | % viability | % viability (Madurella mycetomatis metabolic activity at 2µM (%))
43 | Cc1nc2n(c(=O)c1CCN1CCC(c3noc4cc(F)ccc34)CC1)CCCC2 [ONC0005370, risperidone] | 102.3% | –
44 | CNCCC(Oc1ccc(C(F)(F)F)cc1)c1ccccc1 (stereo not shown) [ONC0002299, fluoxetine hydrochloride] | 68.8% | –
45 | Cn1nccc1Nc1nccc(-c2ccn([C@H](CO)c3ccc(Cl)c(F)c3)c(=O)c2)n1 [ONC0000398, ravoxertinib] | 82.99% | –
46 | CCCCc1ccc(C(N)=O)nc1 [ONC0003779, bupicomide] | 132.3% | –
47 | O=C(O)Cc1sc(-c2ccccc2)nc1-c1ccc(Cl)cc1 [ONC0002498, fentiazac] | 100.8% | –
48 | C1CCN2C[C@@H]3C[C@H](CN4CCCC[C@@H]34)[C@H]2C1 [ONC0003305, sparteine sulfate] | 54.74% | –
49 | CN1C(=O)N(c2cc(Cl)cc(Cl)c2)C(=O)[C@@]1(C)Cc1ccc(Br)cc1 [ONC0001659, birt377] | 74.89% | –
50 | OCc1cc(C(O)CNCCCCCCOCCCCc2ccccc2)ccc1O (stereo not shown) [ONC0001334, salmeterol xinafoate] | 116.3% | –
51 | C#CCN1C(C)=C(C(=O)OC)C(c2cccc([N+](=O)[O-])c2)C(C(=O)OCC)=C1C (stereo not shown) [ONC0003025, mrs1845] | 70.89% | –
52 | Clc1ccccc1CNC[C@H]1CC[C@H](CNCc2ccccc2Cl)CC1 [ONC0002740, ay9944] | 106.2% | –
53 | CC(C)(C)NC[C@H](O)c1ccc(O)c(CO)c1 [ONC0003419, levalbuterol hydrochloride] | 61.97% | –
54 | CC(=O)O[C@]1(C(C)=O)CC[C@H]2[C@@H]3C=CC4=CC(=O)CC[C@]4(C)[C@H]3CC[C@@]21C [ONC0002972, 67dehydro17acetoxyprogesterone] | 57.76% | –
55 | CN(C)C1CCN(C(=O)c2ccc(NC(=O)Nc3ccc(-c4nc(N5CCOCC5)nc(N5CCOCC5)n4)cc3)cc2)CC1 [ONC0004930, pf05212384 pki587] | 94.79% | –
56 | CC(=O)Nc1c(I)c(C(=O)O)c(I)c(N(C)C(C)=O)c1I [ONC0002767, metrizoic acid] | 98.58% | –
57 | CCOc1cc(C=O)ccc1O [ONC0002407, ethyl vanillin] | 88.16% | –
58 | COc1ccc(Nc2ncnc3ccc(OC)cc23)cc1 [ONC0003007, ly456236] | 87.69% | –
59 | O=S(=O)(O)CCS [ONC0000549, mesna] | 101.2% | –
60 | CCn1cc(C(=O)O)c(=O)c2cnc(N3CCCC3)nc21 [ONC0003907, piromidic acid] | 74.26% | –
61 | C[C@@H]1CCCN1CCc1cc2cc(-c3ccc(C#N)cc3)ccc2o1 [ONC0003444, abt 239 tartrate] | 49.56% | –
